Several values for one entry are separate records, joined by “and”; a condition that tells them apart may be missing. Identical values can stand only once. The campaign covered roughly 220,000 compounds. About 770 (0.35%) were called active. The shares of active, inactive and inconclusive entries below differ from those in the screen. No stated cut-off is given here; in the data, active means binding response below about 49% or above about 150%; inconclusive means no clear call, values can overlap the other calls; inactive means in between.
molecular target: Guanine nucleotide-binding protein G(o) subunit alpha (Homo sapiens) (UniProt P09471); experiment: RGS7-Galphao binding modulators, primary screen, biochemical, multiplexed bead flow cytometry (AID 1439); conditions: at 10 µM, actives lie on both sides;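 further: fluorescent Galphao held in activated GDP-AlF4 state binding bead-coupled RGS7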

Protein sequences, listed by entry. Tags and fused reporters are not part of them.
UniProt P09471, whole entry, looked up: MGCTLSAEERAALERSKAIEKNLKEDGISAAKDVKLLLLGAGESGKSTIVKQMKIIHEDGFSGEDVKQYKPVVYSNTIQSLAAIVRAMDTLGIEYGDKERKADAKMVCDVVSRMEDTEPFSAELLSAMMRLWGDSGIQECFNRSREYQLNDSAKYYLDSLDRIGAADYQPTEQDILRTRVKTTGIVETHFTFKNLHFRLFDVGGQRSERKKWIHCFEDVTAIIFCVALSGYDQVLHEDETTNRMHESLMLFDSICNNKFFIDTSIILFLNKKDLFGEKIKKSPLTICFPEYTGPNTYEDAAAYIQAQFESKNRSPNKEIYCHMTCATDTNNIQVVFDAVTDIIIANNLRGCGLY

Compound | binding response (% of control)
Cc1ccccc1Nc1nc(N)nc(-c2oc3ccccc3c2C)n1 | inconclusive: 119%
CN(CCc1cnn(C)c1)Cc1cn[nH]c1-c1ccc(-c2ccccc2)cc1 | inactive: 98.8%
COc1cc(/C=C2\S/C(=N/S(=O)(=O)Cc3ccccc3)NC2=O)c([N+](=O)[O-])cc1OC | inconclusive: 111%
COc1ccc(C(=O)NCC(=O)N/N=C/c2c(C)[nH]c3ccccc23)cc1OC | inconclusive: -131%
CCOC(=O)C(=O)Nc1ccccc1C(=O)OC | inactive: 94%
O=S(=O)(Nc1ccc(-c2nc3cccnc3s2)cc1)c1ccccc1F | inconclusive: 68.7%
COc1cc(OC)c(NC(C)C(=O)N2CCCC2)cc1Cl (stereo unspecified) | inconclusive: 109%
COc1ccc(/C=N/NC(=O)c2ccncc2)c(C(=O)O)c1OC | inconclusive: 97.3%
NC(=S)NNC(=O)c1cccc(Cl)c1 | inconclusive: 82.2%
Cc1ccc(NS(=O)(=O)c2cc(N)ccc2Cl)c(C)c1 | inconclusive: 89.1%
CCOc1ccc(/C(C)=N/NC(=O)Cn2nc([N+](=O)[O-])cc2C)cc1 | inconclusive: 83.3%
Cn1cc(Br)c(-c2cccc(NC(=O)CCC(=O)O)c2)n1 | inconclusive: 108%
Cc1ccc(S(=O)(=O)N(C)Cc2nc(-c3ccncc3)no2)cc1 | inactive: 105%
CN1CCN(c2ccc(CNS(=O)(=O)Cc3ccc(Cl)cc3)cc2)CC1 | inconclusive: 100%
O=S(=O)(c1ccccc1)N1CCCC1c1cccs1 (stereo unspecified) | inconclusive: 202%
Cc1cc(C)cc(-n2c(SCC(=O)Nc3cccc(S(=O)(=O)NC4=NCCCCC4)c3)nc3ccccc3c2=O)c1 | inactive: 101%
O=C(Cn1nnc2ccccc2c1=O)NCC1CCC(C(=O)O)CC1 (stereo unspecified) | inconclusive: 78.7%
Nc1cc(=O)[nH]c(SCc2ccc(Cl)cc2)n1 | inactive: 110%
COCCCNC(=O)CN(c1cc(C(F)(F)F)ccc1Cl)S(C)(=O)=O | inconclusive: 26.7%
Cc1oc(S(=O)(=O)N2CCOCC2)cc1C(=O)Nc1ccc(F)cc1 | inconclusive: 74.7%
O=C(CN1CCN(Cc2ccccc2)CC1)NC(c1ccccc1)c1ccccc1 | inconclusive: 128%
CCCCSc1ncnc2[nH]ncc12 | inconclusive: 123%
O=C1CC[C@@H](CN(Cc2ccccn2)Cc2nc(-c3ccc(C(F)(F)F)cc3)no2)N1 | inactive: 103%

Compound | binding response (% of control)
OC(CNCCC1C=Nc2ccccc21)Cn1c2ccc(Cl)cc2c2cc(Cl)ccc21 (stereo unspecified) | inactive: 102%
CC(C)(CO)CNC(=O)CCc1nnc(Cc2ccc(-c3ccccc3)cc2)o1 | inconclusive: 101%
O=C(CCc1nnc(Cc2ccc3c(c2)OCO3)o1)N(CC1CCC1)CC1CCCO1 (stereo unspecified) | inconclusive: 230%
CCOc1ncccc1C(=O)N1CCCSC1=Nc1ccccc1OC | inconclusive: 82.3%
CCOC(=O)c1csc(N)c1-c1ccc([N+](=O)[O-])cc1 | inconclusive: 98.8%
O=C(NCCCn1ccnc1)c1cc2ccccc2o1 | inconclusive: 117%
CCOC(=O)/C(C#N)=C/c1cn(CCC(=O)O)nc1-c1cccc(Cl)c1 | inconclusive: 84.1%
Cc1c(N=Nc2c(-c3ccc([N+](=O)[O-])cc3)[nH]n(C(N)=S)c2=O)cccc1[N+](=O)[O-] | inactive: 99.4%
Cc1sc2cc3c(c(C(=O)c4ccccc4)[n+]2c1C)-c1cccc2cccc-3c12 | inactive: 110%
Cc1cccc(CCNC(=O)CCc2nnc(CCc3ccccc3)o2)n1 | inactive: 98.7%
COc1ccc(CC(=O)NNC(=O)c2cccnc2)cc1OC | inactive: 96.8%
O=C(COc1ccccc1)NCC1(N2CCCCC2)CCCCC1 | inconclusive: 107%
CNS(=O)(=O)c1cccc(C(=O)OCC(=O)Nc2ccc(-c3nc4ccc(C)cc4s3)cc2)c1 | inconclusive: 112%
CCOC(=O)C1CCN(c2nc(N)c3c(N)nc(SCC(=O)O)cc3c2C#N)CC1 | inconclusive: -245%
O=C(COC(=O)c1cccnc1Cl)Nc1ncc(Cl)cc1Cl | inconclusive: 106%
Cc1ccc(NC(=O)C2CCCN2C(=O)OC(C)(C)C)cc1C (stereo unspecified) | inconclusive: 104%
Nc1[nH]nc2nc(-c3ccccc3)[nH]c(=O)c12 | inconclusive: 109%
CN(C)/C=C/C(=C\C(=O)C(F)(F)F)Nc1ccc(C(F)(F)F)cc1 | inactive: 113%
CCC(C)/C(C)=N/NC(=O)c1ccc(CSc2nc3ccccc3s2)cc1 (stereo unspecified) | inactive: 99.2%
CC(=O)/C(=N/Nc1ccccc1Cl)Sc1nnc(C(O)c2ccccc2)n1-c1ccccc1 (stereo unspecified) | inactive: 98.1%
O=C(COC(=O)/C=C/c1ccc(S(=O)(=O)N2CCOCC2)cc1)NC1CCCCCCC1 | inactive: 90.7%
O=S(=O)(CCN1CCN(c2ccccn2)CC1)c1ccc(Cl)cc1Cl | inconclusive: 83.8%
S=c1[nH]ccn1-c1ccccc1Cl | inconclusive: 85.6% and inconclusive: 103%

Compound | binding response (% of control)
CN1CCc2ccccc2C1Cc1ccccc1NC(=O)c1sc2ccccc2c1Cl (stereo unspecified) | inconclusive: 55%
Cc1ccc(S(=O)(=O)n2nc(-n3c(C)ccc3C)c3c(F)cccc32)c2ccccc12 | inconclusive: 96.2%
CCOC(=O)c1[nH]c(C)c(/C(O)=C2\C(=O)C(=O)N(CCCN3CCOCC3)C2c2cccs2)c1C (stereo unspecified) | inconclusive: 1.83%
O=C(Nc1ncc(C(F)(F)F)cc1Cl)c1ccc(S(=O)(=O)N2CCOCC2)cc1 | inconclusive: 106%
CCC(C)(C)NC(=O)c1ccc(S(=O)(=O)N2CCCCCC2)cc1 | inactive: 103%
COC(=O)C(=C/C=C/c1ccco1)C(=O)OC | inconclusive: 56.7%
Cc1nc2ccccc2nc(C)c1=NO | inactive: 93.5%
Cc1nn(Cc2ccc(F)cc2Cl)c(C)c1[N+](=O)[O-] | inconclusive: 118%
CCCCn1c(SCC(=O)N(C)C)nnc1-c1ccncc1 | inconclusive: 110%
CC(C)C[C@H](NC(=O)c1nc[nH]c1C(=O)N1CCC(C)CC1)C(=O)OC(C)(C)C | inconclusive: 93.8%
Cc1cc(C(=O)NNc2cc(Cl)ccc2Cl)no1 | inconclusive: 123%
Cc1cc(C(=O)N/N=C/c2ccc(-c3cccc(Cl)c3)o2)n[nH]1 | inconclusive: 98.5%
CC(=O)CSc1nnc(CN2C(=O)CSc3ccc(C(F)(F)F)cc32)n1C | inconclusive: 101%
CCOCCCn1cnc2c3cc(F)ccc3n(C)c2c1=O | inconclusive: 265%
NS(=O)(=O)c1ccc(NC2(C(=O)O)CCCC2)cc1 | inconclusive: 73.7%
Cc1cccc(NNC(N)=S)c1C | inactive: 93.1%
CC(C)CCNC(=O)COC(=O)c1cc(Br)c(Br)s1 | inconclusive: 92.9%
Cc1noc(C)c1NC(=O)NC(c1ccccc1)c1ccccc1 | inconclusive: 242%
CCC(Sc1ccc2nnc(-c3cccnc3)n2n1)C(=O)OC (stereo unspecified) | inactive: 92.5%
CCOC(=O)N1CCC(NC(=O)c2ccc(CNS(=O)(=O)c3ccc(F)cc3)cc2)CC1 | inactive: 117%
Cc1cc(NC(=O)CCOc2ccc(F)cc2)no1 | inconclusive: 625%
O=C1ON=C(c2ccccc2)/C1=C/c1ccco1 | inconclusive: 103%
O=C(O)CC1(CC(=O)Nc2cc(C(F)(F)F)cc(C(F)(F)F)c2)CCCCC1 | inconclusive: 81.1%

Compound | binding response (% of control)
COc1ccc(C2CC(c3ccc(OC)cc3)n3nc(NS(C)(=O)=O)nc3N2)cc1 (stereo unspecified) | inconclusive: 69.6%
Cc1cccn2c(=O)c(C=O)c(Cl)nc12 | inconclusive: 85.8%
O=c1c(N2CCOCC2)c(N2CCOCC2)c1=O | inconclusive: 81.7%
Cc1ccc(N2CC(=O)N(c3ccc(C)cc3)CC2=O)cc1 | inconclusive: 82.8%
NC12CC3CC(C1)CC(CC(=O)O)(C3)C2 | inconclusive: 97.9%
O=Cc1ccc(O)c(O)c1 | inactive: 82.2%
COc1ccc(NC(=O)/C(C#N)=C\C=C\c2ccco2)cc1 | inactive: 100%
O=C(CSc1ccc2c(c1)OCCO2)NC(=O)Cc1ccccc1 | inactive: 99.2%
Cc1cc(=O)[nH]c(SCC(=O)Nc2ccc(C)c(S(=O)(=O)N3CCCCC3)c2)n1 | inconclusive: 107%
CN(C)CC(O)CN(c1ccccc1)c1ccccc1 (stereo unspecified) | inconclusive: 133%
COc1ccc(-c2ccc(CCC(=O)O)n2NC(N)=O)cc1 | inconclusive: 104%
Cc1ccc(CN2CCN(/N=C/c3ccccc3)CC2)cc1 | inconclusive: 129%
CCCCCCC(=O)N(O)C1CC(=O)N(c2ccc(Cl)cc2)C1=O (stereo unspecified) | inconclusive: 167%
COc1cc(C(CCN2CCCC(C)C2)c2c(OC)cc(OC)c3c(-c4ccccc4)cc(=O)oc23)cc(OC)c1OC (stereo unspecified) | inconclusive: 99%
NCCNC(=O)Cc1cccc(NC(=O)Cc2ccc(Nc3ncnc4c3ncn4[C@@H]3O[C@H](CO)[C@@H](O)[C@H]3O)cc2)c1 | inconclusive: 113%
Cc1nnc(C)n1N | inconclusive: 93.2%
CC(Sc1ccc2ccccc2c1)C(=O)NC(N)=O (stereo unspecified) | inconclusive: 101%
Cc1ccccc1N1CCN(C2=NC(=O)/C(=C/c3cn[nH]c3-c3ccccc3)S2)CC1 | inactive: 112%
C=CCOc1ccc(CN(C)CC(=O)Nc2ccccc2[N+](=O)[O-])cc1 | inconclusive: 107%
COc1ccc(C(C)C)cc1S(=O)(=O)NCc1ccccn1 | inactive: 94.2%
Cc1nc(SC(C(N)=O)c2ccccc2)c(C#N)c(C)c1C (stereo unspecified) | inconclusive: 99.7%
CCN(CC)S(=O)(=O)c1cc(NC(=O)C(C)Nc2ccccc2N2CCOCC2)ccc1C (stereo unspecified) | inconclusive: 111%
